This passage reports NP40-soluble protein abundance results from the supplement of paper PMC6411743.

The chains behind the UniProt entries cited, without tags or fusion partners. Where a name states a change or a piece, a line headed by the entry shows the natural chain unless it says otherwise.
UniProt Q5VWJ9: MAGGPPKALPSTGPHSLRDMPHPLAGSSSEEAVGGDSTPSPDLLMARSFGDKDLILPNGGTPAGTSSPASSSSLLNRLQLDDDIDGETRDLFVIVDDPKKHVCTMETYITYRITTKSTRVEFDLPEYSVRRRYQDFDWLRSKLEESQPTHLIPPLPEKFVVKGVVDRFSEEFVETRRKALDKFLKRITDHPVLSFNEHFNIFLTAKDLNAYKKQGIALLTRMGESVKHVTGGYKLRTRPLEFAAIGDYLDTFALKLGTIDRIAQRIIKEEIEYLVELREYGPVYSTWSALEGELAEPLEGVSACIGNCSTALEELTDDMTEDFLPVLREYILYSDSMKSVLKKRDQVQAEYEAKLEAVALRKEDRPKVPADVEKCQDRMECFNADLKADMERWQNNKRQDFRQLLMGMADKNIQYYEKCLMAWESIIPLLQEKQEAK
UniProt Q7Z3C6: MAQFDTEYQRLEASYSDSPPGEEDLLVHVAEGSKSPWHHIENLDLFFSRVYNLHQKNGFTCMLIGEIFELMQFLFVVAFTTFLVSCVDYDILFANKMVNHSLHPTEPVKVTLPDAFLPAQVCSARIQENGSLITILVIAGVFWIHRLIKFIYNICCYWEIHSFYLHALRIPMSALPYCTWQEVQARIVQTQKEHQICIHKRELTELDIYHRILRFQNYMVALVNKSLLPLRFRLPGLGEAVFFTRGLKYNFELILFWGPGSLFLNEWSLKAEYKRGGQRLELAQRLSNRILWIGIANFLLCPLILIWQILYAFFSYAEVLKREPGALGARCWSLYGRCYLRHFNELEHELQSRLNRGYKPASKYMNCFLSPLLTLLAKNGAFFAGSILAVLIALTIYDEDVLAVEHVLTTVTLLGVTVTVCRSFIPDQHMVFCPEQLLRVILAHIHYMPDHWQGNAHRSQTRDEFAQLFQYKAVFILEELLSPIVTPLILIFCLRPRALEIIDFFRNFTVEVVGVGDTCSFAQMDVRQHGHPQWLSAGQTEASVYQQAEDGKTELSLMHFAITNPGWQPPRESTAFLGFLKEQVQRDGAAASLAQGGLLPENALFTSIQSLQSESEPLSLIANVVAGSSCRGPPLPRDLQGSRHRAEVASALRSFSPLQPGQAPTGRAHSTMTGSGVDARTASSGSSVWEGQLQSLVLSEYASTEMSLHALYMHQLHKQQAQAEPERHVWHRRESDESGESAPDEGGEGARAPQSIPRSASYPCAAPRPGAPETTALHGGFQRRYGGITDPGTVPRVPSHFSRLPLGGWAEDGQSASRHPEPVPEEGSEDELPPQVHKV
UniProt Q7L266: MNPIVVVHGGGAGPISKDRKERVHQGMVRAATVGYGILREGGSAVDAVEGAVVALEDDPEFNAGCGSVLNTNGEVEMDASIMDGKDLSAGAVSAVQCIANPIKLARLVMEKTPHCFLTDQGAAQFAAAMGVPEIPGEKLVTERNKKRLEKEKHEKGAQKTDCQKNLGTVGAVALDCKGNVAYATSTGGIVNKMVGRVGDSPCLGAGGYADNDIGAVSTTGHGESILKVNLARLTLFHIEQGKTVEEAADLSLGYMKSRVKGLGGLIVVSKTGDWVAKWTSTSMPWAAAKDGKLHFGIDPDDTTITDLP
UniProt Q7KZF4: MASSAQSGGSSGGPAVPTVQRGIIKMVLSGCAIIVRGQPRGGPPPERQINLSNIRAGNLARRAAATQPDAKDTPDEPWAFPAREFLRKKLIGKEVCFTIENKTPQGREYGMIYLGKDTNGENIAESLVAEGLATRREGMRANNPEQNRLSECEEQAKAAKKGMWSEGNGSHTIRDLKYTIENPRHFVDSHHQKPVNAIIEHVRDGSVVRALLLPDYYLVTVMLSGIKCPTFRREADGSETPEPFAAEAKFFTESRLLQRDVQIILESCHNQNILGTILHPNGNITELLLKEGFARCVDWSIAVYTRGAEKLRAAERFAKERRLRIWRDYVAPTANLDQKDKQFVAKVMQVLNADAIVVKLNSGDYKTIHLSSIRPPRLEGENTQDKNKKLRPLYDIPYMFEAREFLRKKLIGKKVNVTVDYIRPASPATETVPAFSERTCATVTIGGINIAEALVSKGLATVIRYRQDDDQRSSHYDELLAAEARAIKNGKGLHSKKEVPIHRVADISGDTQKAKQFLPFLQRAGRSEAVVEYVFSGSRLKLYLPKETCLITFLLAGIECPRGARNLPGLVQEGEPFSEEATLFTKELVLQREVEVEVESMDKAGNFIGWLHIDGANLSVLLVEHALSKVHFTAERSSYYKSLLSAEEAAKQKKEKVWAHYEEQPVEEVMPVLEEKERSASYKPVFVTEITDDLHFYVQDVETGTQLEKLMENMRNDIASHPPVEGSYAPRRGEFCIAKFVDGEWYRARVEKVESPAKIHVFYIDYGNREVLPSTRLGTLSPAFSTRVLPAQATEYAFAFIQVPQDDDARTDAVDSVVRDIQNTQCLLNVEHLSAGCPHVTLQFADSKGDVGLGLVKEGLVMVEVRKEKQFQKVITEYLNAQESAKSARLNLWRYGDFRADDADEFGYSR
UniProt Q6P996: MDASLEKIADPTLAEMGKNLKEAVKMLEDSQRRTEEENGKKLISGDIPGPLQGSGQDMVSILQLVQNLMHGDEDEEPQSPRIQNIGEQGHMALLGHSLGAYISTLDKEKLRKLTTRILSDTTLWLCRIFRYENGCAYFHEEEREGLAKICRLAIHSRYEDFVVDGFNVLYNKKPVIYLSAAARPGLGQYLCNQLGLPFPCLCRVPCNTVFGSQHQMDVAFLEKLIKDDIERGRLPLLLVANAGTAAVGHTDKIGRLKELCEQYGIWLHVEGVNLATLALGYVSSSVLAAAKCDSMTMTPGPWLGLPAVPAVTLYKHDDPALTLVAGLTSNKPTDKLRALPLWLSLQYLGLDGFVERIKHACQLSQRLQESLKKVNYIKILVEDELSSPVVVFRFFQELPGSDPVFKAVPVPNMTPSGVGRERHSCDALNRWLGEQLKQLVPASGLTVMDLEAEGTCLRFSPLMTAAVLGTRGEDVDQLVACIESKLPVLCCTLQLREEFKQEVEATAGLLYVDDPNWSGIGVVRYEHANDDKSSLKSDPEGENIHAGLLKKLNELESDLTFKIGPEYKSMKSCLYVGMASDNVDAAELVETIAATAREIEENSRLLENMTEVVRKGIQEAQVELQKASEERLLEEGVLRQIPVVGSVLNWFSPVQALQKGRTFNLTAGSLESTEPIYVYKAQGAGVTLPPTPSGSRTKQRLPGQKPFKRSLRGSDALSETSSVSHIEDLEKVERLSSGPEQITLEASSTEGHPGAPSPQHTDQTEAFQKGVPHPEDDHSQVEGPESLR
UniProt Q6UN15: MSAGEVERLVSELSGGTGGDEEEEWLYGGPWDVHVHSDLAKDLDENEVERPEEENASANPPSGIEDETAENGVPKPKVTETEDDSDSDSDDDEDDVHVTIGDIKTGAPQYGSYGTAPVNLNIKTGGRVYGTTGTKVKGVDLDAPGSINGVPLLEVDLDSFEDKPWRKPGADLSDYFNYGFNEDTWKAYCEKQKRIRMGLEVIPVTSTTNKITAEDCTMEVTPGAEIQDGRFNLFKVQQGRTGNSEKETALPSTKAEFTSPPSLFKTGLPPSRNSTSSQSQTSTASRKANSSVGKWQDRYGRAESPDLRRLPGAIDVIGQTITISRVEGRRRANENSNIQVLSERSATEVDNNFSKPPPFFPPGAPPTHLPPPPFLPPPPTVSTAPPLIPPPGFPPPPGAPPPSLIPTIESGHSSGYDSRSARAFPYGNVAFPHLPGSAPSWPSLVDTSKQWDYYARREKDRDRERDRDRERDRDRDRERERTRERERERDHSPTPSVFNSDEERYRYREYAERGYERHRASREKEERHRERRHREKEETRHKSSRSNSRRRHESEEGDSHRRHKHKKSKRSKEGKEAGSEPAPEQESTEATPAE
UniProt Q6XZF7: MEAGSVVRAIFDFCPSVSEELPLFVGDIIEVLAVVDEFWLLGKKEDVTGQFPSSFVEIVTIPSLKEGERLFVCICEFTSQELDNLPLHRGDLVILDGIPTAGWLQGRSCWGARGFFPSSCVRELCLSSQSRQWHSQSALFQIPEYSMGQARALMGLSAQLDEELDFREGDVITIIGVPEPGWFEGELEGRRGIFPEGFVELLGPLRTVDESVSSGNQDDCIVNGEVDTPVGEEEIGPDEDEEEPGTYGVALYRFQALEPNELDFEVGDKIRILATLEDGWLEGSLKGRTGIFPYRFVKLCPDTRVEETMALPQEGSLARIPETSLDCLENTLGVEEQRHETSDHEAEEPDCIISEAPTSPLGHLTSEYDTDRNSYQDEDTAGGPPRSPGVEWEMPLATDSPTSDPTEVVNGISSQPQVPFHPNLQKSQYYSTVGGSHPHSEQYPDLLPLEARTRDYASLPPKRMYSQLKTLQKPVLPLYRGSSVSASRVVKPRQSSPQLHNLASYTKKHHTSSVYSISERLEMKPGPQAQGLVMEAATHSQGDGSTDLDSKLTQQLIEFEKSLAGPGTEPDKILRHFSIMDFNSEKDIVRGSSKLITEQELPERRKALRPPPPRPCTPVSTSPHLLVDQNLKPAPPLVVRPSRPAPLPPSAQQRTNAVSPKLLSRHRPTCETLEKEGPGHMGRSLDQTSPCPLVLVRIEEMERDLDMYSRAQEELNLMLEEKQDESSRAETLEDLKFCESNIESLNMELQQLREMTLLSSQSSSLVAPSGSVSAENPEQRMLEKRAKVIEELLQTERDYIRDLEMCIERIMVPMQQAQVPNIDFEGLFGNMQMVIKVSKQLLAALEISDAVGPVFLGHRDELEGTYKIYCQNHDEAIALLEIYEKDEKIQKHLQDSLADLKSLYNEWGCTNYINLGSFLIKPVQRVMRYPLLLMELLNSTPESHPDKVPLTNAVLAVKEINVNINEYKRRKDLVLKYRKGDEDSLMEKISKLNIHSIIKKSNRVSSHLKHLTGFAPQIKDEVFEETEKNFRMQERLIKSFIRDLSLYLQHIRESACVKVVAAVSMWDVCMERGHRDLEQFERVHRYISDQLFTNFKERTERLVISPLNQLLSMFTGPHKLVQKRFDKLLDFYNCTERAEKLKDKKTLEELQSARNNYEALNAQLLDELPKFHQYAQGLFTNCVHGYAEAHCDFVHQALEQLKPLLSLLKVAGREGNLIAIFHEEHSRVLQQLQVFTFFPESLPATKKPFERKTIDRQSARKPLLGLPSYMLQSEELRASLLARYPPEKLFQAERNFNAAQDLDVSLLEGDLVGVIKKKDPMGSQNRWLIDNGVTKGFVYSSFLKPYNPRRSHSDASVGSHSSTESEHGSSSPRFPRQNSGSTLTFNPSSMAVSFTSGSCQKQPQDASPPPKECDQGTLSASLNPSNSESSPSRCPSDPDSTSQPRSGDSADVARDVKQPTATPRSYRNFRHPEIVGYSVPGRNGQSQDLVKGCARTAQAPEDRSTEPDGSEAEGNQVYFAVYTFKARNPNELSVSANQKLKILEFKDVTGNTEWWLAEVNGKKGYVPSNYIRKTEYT
UniProt Q6PI78: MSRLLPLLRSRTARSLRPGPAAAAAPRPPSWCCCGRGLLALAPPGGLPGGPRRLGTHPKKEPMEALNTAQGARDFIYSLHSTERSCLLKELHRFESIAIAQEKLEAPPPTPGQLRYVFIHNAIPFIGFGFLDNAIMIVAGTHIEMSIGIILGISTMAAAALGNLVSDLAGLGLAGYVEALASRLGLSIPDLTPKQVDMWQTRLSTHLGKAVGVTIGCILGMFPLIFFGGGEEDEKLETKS
UniProt Q6P2H3: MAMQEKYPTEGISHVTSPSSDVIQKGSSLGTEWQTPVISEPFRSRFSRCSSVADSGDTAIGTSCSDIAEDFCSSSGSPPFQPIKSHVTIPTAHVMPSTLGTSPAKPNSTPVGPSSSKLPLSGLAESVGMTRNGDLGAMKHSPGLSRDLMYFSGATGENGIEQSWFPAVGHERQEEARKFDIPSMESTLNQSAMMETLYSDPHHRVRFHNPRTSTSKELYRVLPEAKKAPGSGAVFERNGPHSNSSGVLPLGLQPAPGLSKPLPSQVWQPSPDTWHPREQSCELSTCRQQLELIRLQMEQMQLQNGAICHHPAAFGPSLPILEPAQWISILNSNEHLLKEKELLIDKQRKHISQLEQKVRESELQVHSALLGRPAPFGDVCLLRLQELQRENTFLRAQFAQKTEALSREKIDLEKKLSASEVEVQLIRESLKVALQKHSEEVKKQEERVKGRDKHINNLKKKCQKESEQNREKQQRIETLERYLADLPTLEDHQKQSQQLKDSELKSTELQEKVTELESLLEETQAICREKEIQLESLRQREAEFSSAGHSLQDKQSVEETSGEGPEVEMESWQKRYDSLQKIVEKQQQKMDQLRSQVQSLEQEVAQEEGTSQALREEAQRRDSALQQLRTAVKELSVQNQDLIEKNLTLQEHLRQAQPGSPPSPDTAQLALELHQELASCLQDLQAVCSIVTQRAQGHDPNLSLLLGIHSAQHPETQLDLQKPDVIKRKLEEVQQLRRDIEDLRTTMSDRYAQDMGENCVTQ

± gives the standard deviation of the averaged measurements. The list shows a part of the results, in another mix than the full data. Small differences around the control level are noise.

Compound in this assay: Nc1ncnc2c1ncn2[C@@H]1O[C@H](COP(=O)(O)OP(=O)(O)NP(=O)(O)O)[C@@H](O)[C@H]1O [adenylyl imidodiphosphate]
Briefly: NP40-soluble protein abundance relative to vehicle (solubility fold change) (ratio); higher = more soluble protein in presence of AMP-PNP. The essentials: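 In three independent experiments, Jurkat crude lysate made by Dounce homogenisation was treated for 10 min at room temperature and then 3 min at 37 °C with eight concentrations ranging from 0.1 to 10 mM. It was then solubilised with 0.8% NP40 plus benzonase for 60 min at 4 °C and ultracentrifuged. The supernatant was TMT-labelled for LC-MS/MS, and each value is the fold change against the detergent-processed vehicle for the same replicate, using vsn-normalised intensities.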

DHRS11 (UniProt Q6UWP2): the NP40-soluble protein abundance by setting is: (concentration: 0.1mM) 1.01 ± 0.016; (concentration: 0.5mM) 1.01 ± 0.022.
For UniProt Q7L9L4, in that order: 1.03 ± 0.057 and 1.05 ± 0.075.
In the case of UniProt Q6UXB8 and related entries, the NP40-soluble protein abundance reads like this: (concentration: 0.1mM) 1.02 ± 0.038; (concentration: 0.5mM) 1.03 ± 0.047.
For the target UniProt Q6ZRI6 and related entries, the NP40-soluble protein abundance was found to be 1 ± 0.0051 (concentration: 0.1mM) and 0.9868 ± 0.007 (concentration: 0.5mM).
As for LMBRD2 (UniProt Q68DH5), the NP40-soluble protein abundance was 0.979 ± 0.061 (concentration: 0.1mM) and 1 ± 0.019 (concentration: 0.5mM).
In the case of REEP3 (UniProt Q6NUK4), the NP40-soluble protein abundance reads like this: (concentration: 0.1mM) 0.988 ± 0.029; (concentration: 0.5mM) 1 ± 0.048.
The corresponding values for UniProt Q5W0B1 are 1 ± 0.022 and 1.01 ± 0.058.
For SNRNP48 (UniProt Q6IEG0), the NP40-soluble protein abundance (concentration: 0.1mM) stood at 1.01 ± 0.055 and the NP40-soluble protein abundance (concentration: 0.5mM) amounted to 1.03 ± 0.085.
Regarding SNX30 (UniProt Q5VWJ9), the NP40-soluble protein abundance turned out to be 0.976 ± 0.022 (concentration: 0.1mM) and 0.997 ± 0.003 (concentration: 0.5mM).
As to UniProt Q6ZMG9 and related entries, the NP40-soluble protein abundance reads like this: (concentration: 0.1mM) 1 ± 0.038; (concentration: 0.5mM) 1.02 ± 0.035.
The corresponding values for UniProt Q7Z6B0 and related entries are 0.997 ± 0.012 and 1.02 ± 0.073.
For UniProt Q7Z3C6 and related entries, in that order: 1 ± 0.043 and 1 ± 0.016.
The corresponding values for UniProt Q7L266 and related entries are 0.976 ± 0.041 and 0.996 ± 0.04.
Consider UniProt Q6IAA8 and related entries, for which the NP40-soluble protein abundance (concentration: 0.1mM) worked out at 0.988 ± 0.021 and the NP40-soluble protein abundance (concentration: 0.5mM) was 0.995 ± 0.054.
Regarding TTC19 (UniProt Q6DKK2), the NP40-soluble protein abundance (concentration: 0.1mM) was found to be 1 ± 0.072 and the NP40-soluble protein abundance (concentration: 0.5mM) worked out at 1.02 ± 0.038.
The corresponding values for UniProt Q6VMQ6 and related entries are 0.981 ± 0.019 and 1.02 ± 0.038.
The corresponding values for SND1 (UniProt Q7KZF4) are 0.99239 ± 0.00061 and 1.01 ± 0.019.
Regarding UniProt Q5VW32 and related entries, the NP40-soluble protein abundance is, setting by setting: (concentration: 0.1mM) 1.01 ± 0.069; (concentration: 0.5mM) 0.992 ± 0.042.
For the target UniProt Q6ICG6 and related entries, the NP40-soluble protein abundance by setting is: (concentration: 0.1mM) 1.01 ± 0.045; (concentration: 0.5mM) 1 ± 0.054.
Regarding EPM2AIP1 (UniProt Q7L775), the NP40-soluble protein abundance was determined as 0.976 ± 0.02 (concentration: 0.1mM) and 0.986 ± 0.023 (concentration: 0.5mM).
Take ATAD2 (UniProt Q6PL18): the NP40-soluble protein abundance was 1.01 ± 0.051 (concentration: 0.1mM) and 0.97 ± 0.035 (concentration: 0.5mM).
As for PGM2L1 (UniProt Q6PCE3), the NP40-soluble protein abundance runs as follows: (concentration: 0.1mM) 0.965 ± 0.017; (concentration: 0.5mM) 0.986 ± 0.01.
Turning to TTC21B (UniProt Q7Z4L5), the NP40-soluble protein abundance was 1.017 ± 0.0068 (concentration: 0.1mM) and 1.01 ± 0.014 (concentration: 0.5mM).
As for UniProt Q6P996 and related entries, the NP40-soluble protein abundance (concentration: 0.1mM) came to 1 ± 0.013 and the NP40-soluble protein abundance (concentration: 0.5mM) is 1 ± 0.016.
The corresponding values for UniProt Q6UN15 and related entries are 0.997 ± 0.033 and 1.02 ± 0.067.
The corresponding values for UniProt Q6F5E8 and related entries are 1.02 ± 0.058 and 0.993 ± 0.011.
As for RAB11FIP1 (UniProt Q6WKZ4), the NP40-soluble protein abundance stood at 0.973 ± 0.045 (concentration: 0.1mM) and 0.988 ± 0.035 (concentration: 0.5mM).
For UniProt Q6IA17 and related entries, the NP40-soluble protein abundance runs as follows: (concentration: 0.1mM) 0.99 ± 0.036; (concentration: 0.5mM) 0.981 ± 0.015.
For ZNF318 (UniProt Q5VUA4), in that order: 0.974 ± 0.04 and 0.969 ± 0.042.
As to UniProt Q7KYR7 and related entries, the NP40-soluble protein abundance is 0.984 ± 0.024 (concentration: 0.1mM) and 0.989 ± 0.038 (concentration: 0.5mM).
For CBLL1 (UniProt Q75N03), in that order: 0.994 ± 0.026 and 0.966 ± 0.023.
The corresponding values for DNMBP (UniProt Q6XZF7) are 1.02 ± 0.022 and 1.02 ± 0.0081.
Take TMEM65 (UniProt Q6PI78): the NP40-soluble protein abundance (concentration: 0.1mM) was 0.948 ± 0.018 and the NP40-soluble protein abundance (concentration: 0.5mM) was 0.982 ± 0.023.
For “Q5VV87 and related entries (UniProt O14880)”, in that order: 0.978 ± 0.045 and 0.983 ± 0.036.
The corresponding values for UniProt Q75QN2 and related entries are 0.978 ± 0.055 and 0.952 ± 0.024.
For UniProt Q6NUQ4 and related entries, the NP40-soluble protein abundance (concentration: 0.1mM) stood at 0.992 ± 0.024 and the NP40-soluble protein abundance (concentration: 0.5mM) is 0.997 ± 0.035.
As to UniProt Q7L523, the NP40-soluble protein abundance worked out at 1.07 ± 0.029 (concentration: 0.1mM) and 1.05 ± 0.03 (concentration: 0.5mM).
UniProt Q6P9B6: the NP40-soluble protein abundance worked out at 1.02 ± 0.047 (concentration: 0.1mM) and 1.017 ± 0.0066 (concentration: 0.5mM).
Consider UniProt Q6P2H3 and related entries, for which the NP40-soluble protein abundance (concentration: 0.1mM) was determined as 0.991 ± 0.018 and the NP40-soluble protein abundance (concentration: 0.5mM) stood at 0.988 ± 0.039.
As to RETSAT (UniProt Q6NUM9), the NP40-soluble protein abundance runs as follows: (concentration: 0.1mM) 0.9902 ± 0.0062; (concentration: 0.5mM) 0.986 ± 0.035.
